From paper PMC12618502

Biological target: T1, GFP-tagged SCP8 (SCP8-GFP), Verticillium dahliae small cysteine-containing effector VdSCP8 (Verticillium dahliae) (UniProt G2XD53)
T1 sequence: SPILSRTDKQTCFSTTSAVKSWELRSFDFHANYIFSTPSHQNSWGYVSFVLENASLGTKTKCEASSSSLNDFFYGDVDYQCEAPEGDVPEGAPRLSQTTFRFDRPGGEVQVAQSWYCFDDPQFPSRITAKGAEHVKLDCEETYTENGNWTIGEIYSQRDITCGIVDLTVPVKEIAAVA
Assay: co-IP; N. benthamiana leaves co-expressing SCP8-GFP and SBT1-myc, 2 days after agroinfiltration; RIPA buffer with protease inhibitors; anti-GFP agarose beads, 4 °C, one hour; blots with anti-GFP and anti-myc

myc-tagged N. benthamiana SBT1 (SBT1-myc) (enzyme)
binding: binds

No constants are given. Whether binding was seen depends on the method and setting. Binding seen in cells or lysates may run through a third protein. A result given as binding can be weak or reduced; the word gives no strength. Where a sequence is shown, tags or fusion partners need not be part of it.
